Reference: US12419871B2, “Biomolecules involved in Alzheimer's disease” (ELECTROPHORETICS LIMITED, priority 2015, dated 2025)

Test: TMTcalibrator quantification of regulated proteins in AD CSF versus control
Set-up: species or system human
Conditions: CSF of AD patient versus control; non-modified peptides of each protein summed for three control and three AD cases

Molecule | Log2 AD/Control
Q9Y285 (protein, UniProt Q9Y285 1-508, looked up, full-length) MADGQVAELLLRRLEASDGGLDSAELAAELGMEHQAVVGAVKSLQALGEVIEAELRSTKHWELTAEGEEIAREGSHEARVFRSIPPEGLAQSELMRLPSGKVGFSKAMSNKWIRVDKSAADGPRVFRVVDSMEDEVQRRLQLVRGGQAEKLGEKERSELRKRKLLAEVTLKTYWVSKGSAFSTSISKQETELSPEMISSGSWRDRPFKPYNFLAHGVLPDSGHLHPLLKVRSQFRQIFLEMGFTEMPTDNFIESSFWNFDALFQPQQHPARDQHDTFFLRDPAEALQLPMDYVQRVKRTHSQGGYGSQGYKYNWKLDEARKNLLRTHTTSASARALYRLAQKKPFTPVKYFSIDRVFRNETLDATHLAEFHQIEGVVADHGLTLGHLMGVLREFFTKLGITQLRFKPAYNPYTEPSMEVFSYHQGLKKWVEVGNSGVFRPEMLLPMGLPENVSVIAWGLSLERPTMIKYGINNIRELVGHKVNLQMVYDSPLCRLDAEPRPPPTQEAA | 0.72
P15259 (protein, UniProt P15259 1-253, looked up, full-length) MATHRLVMVRHGESTWNQENRFCGWFDAELSEKGTEEAKRGAKAIKDAKMEFDICYTSVLKRAIRTLWAILDGTDQMWLPVVRTWRLNERHYGGLTGLNKAETAAKHGEEQVKIWRRSFDIPPPPMDEKHPYYNSISKERRYAGLKPGELPTCESLKDTIARALPFWNEEIVPQIKAGKRVLIAAHGNSLRGIVKHLEGMSDQAIMELNLPTGIPIVYELNKELKPTKPMQFLGDEETVRKAMEAVAAQGKAK | 1.12
P11766 (protein, UniProt P11766 1-374, looked up, full-length) MANEVIKCKAAVAWEAGKPLSIEEIEVAPPKAHEVRIKIIATAVCHTDAYTLSGADPEGCFPVILGHEGAGIVESVGEGVTKLKAGDTVIPLYIPQCGECKFCLNPKTNLCQKIRVTQGKGLMPDGTSRFTCKGKTILHYMGTSTFSEYTVVADISVAKIDPLAPLDKVCLLGCGISTGYGAAVNTAKLEPGSVCAVFGLGGVGLAVIMGCKVAGASRIIGVDINKDKFARAKEFGATECINPQDFSKPIQEVLIEMTDGGVDYSFECIGNVKVMRAALEACHKGWGVSVVVGVAASGEEIATRPFQLVTGRTWKGTAFGGWKSVESVPKLVSEYMSKKIKVDEFVTHNLSFDEINKAFELMHSGKSIRTVVKI | 0.87
A6NDG6 (protein, UniProt A6NDG6 1-321, looked up, full-length) MAAAEAGGDDARCVRLSAERAQALLADVDTLLFDCDGVLWRGETAVPGAPEALRALRARGKRLGFITNNSSKTRAAYAEKLRRLGFGGPAGPGASLEVFGTAYCTALYLRQRLAGAPAPKAYVLGSPALAAELEAVGVASVGVGPEPLQGEGPGDWLHAPLEPDVRAVVVGFDPHFSYMKLTKALRYLQQPGCLLVGTNMDNRLPLENGRFIAGTGCLVRAVEMAAQRQADIIGKPSRFIFDCVSQEYGINPERTVMVGDRLDTDILLGATCGLKTILTLTGVSTLGDVKNNQESDCVSKKKMVPDFYVDSIADLLPALQG | 1.05
Q9H008 (protein, UniProt Q9H008 1-270, looked up, full-length) MAPWGKRLAGVRGVLLDISGVLYDSGAGGGTAIAGSVEAVARLKRSRLKVRFCTNESQKSRAELVGQLQRLGFDISEQEVTAPAPAACQILKEQGLRPYLLIHDGVRSEFDQIDTSNPNCVVIADAGESFSYQNMNNAFQVLMELEKPVLISLGKGRYYKETSGLMLDVGPYMKALEYACGIKAEVVGKPSPEFFKSALQAIGVEAHQAVMIGDDIVGDVGGAQRCGMRALQVRTGKFRPSDEHHPEVKADGYVDNLAEAVDLLLQHADK | 0.74
Q5SRE7 (protein, UniProt Q5SRE7 1-291, looked up, full-length) MACLSPSQLQKFQQDGFLVLEGFLSAEECVAMQQRIGEIVAEMDVPLHCRTEFSTQEEEQLRAQGSTDYFLSSGDKIRFFFEKGVFDEKGNFLVPPEKSINKIGHALHAHDPVFKSITHSFKVQTLARSLGLQMPVVVQSMYIFKQPHFGGEVSPHQDASFLYTEPLGRVLGVWIAVEDATLENGCLWFIPGSHTSGVSRRMVRAPVGSAPGTSFLGSEPARDNSLFVPTPVQRGALVLIHGEVVHKSKQNLSDRSRQAYTFHLMEASGTTWSPENWLQPTAELPFPQLYT | 0.65
Q9GZP4 (protein, UniProt Q9GZP4 1-211, looked up, full-length) MSHGHSHGGGGCRCAAEREEPPEQRGLAYGLYLRIDLERLQCLNESREGSGRGVFKPWEERTDRSKFVESDADEELLFNIPFTGNVKLKGIIIMGEDDDSHPSEMRLYKNIPQMSFDDTEREPDQTFSLNRDLTGELEYATKISRFSNVYHLSIHISKNFGADTTKVFYIGLRGEWTELRRHEVTICNYEASANPADHRVHQVTPQTHFIS | 0.71
Q09470 (protein, UniProt Q09470 1-495, looked up, full-length) MTVMSGENVDEASAAPGHPQDGSYPRQADHDDHECCERVVINISGLRFETQLKTLAQFPNTLLGNPKKRMRYFDPLRNEYFFDRNRPSFDAILYYYQSGGRLRRPVNVPLDMFSEEIKFYELGEEAMEKFREDEGFIKEEERPLPEKEYQRQVWLLFEYPESSGPARVIAIVSVMVILISIVIFCLETLPELKDDKDFTGTVHRIDNTTVIYNSNIFTDPFFIVETLCIIWFSFELVVRFFACPSKTDFFKNIMNFIDIVAIIPYFITLGTEIAEQEGNQKGEQATSLAILRVIRLVRVFRIFKLSRHSKGLQILGQTLKASMRELGLLIFFLFIGVILFSSAVYFAEAEEAESHFSSIPDAFWWAVVSMTTVGYGDMYPVTIGGKIVGSLCAIAGVLTIALPVPVIVSNFNYFYHRETEGEEQAQLLHVSSPNLASDSDLSRRSSSTMSKSEYMEIEEDMNNSIAHYRQVNIRTANCTTANQNCVNKSKLLTDV | 0.73
Q8TBB6 (protein, UniProt Q8TBB6 1-771, looked up, full-length) MSGFFTSLDPRRVQWGAAWYAMHSRILRTKPVESMLEGTGTTTAHGTKLAQVLTTVDLISLGVGSCVGTGMYVVSGLVAKEMAGPGVIVSFIIAAVASILSGVCYAEFGVRVPKTTGSAYTYSYVTVGEFVAFFIGWNLILEYLIGTAAGASALSSMFDSLANHTISRWMADSVGTLNGLGKGEESYPDLLALLIAVIVTIIVALGVKNSIGFNNVLNVLNLAVWVFIMIAGLFFINGKYWAEGQFLPHGWSGVLQGAATCFYAFIGFDIIATTGEEAKNPNTSIPYAITASLVICLTAYVSVSVILTLMVPYYTIDTESPLMEMFVAHGFYAAKFVVAIGSVAGLTVSLLGSLFPMPRVIYAMAGDGLLFRFLAHVSSYTETPVVACIVSGFLAALLALLVSLRDLIEMMSIGTLLAYTLVSVCVLLLRYQPESDIDGFVKFLSEEHTKKKEGILADCEKEACSPVSEGDEFSGPATNTCGAKNLPSLGDNEMLIGKSDKSTYNVNHPNYGTVDMTTGIEADESENIYLIKLKKLIGPHYYTMRIRLGLPGKMDRPTAATGHTVTICVLLLFILMFIFCSFIIFGSDYISEQSWWAILLVVLMVLLISTLVFVILQQPENPKKLPYMAPCLPFVPAFAMLVNIYLMLKLSTITWIRFAVWCFVGLLIYFGYGIWNSTLEISAREEALHQSTYQRYDVDDPFSVEEGFSYATEGESQEDWGGPTEDKGFYYQQMSDAKANGRTSSKAKSKSKHKQNSEALIANDELDYSPE | 0.66
Q9H7Z7 (protein, UniProt Q9H7Z7 1-377, looked up, full-length) MDPAARVVRALWPGGCALAWRLGGRPQPLLPTQSRAGFAGAAGGPSPVAAARKGSPRLLGAAALALGGALGLYHTARWHLRAQDLHAERSAAQLSLSSRLQLTLYQYKTCPFCSKVRAFLDFHALPYQVVEVNPVRRAEIKFSSYRKVPILVAQEGESSQQLNDSSVIISALKTYLVSGQPLEEIITYYPAMKAVNEQGKEVTEFGNKYWLMLNEKEAQQVYGGKEARTEEMKWRQWADDWLVHLISPNVYRTPTEALASFDYIVREGKFGAVEGAVAKYMGAAAMYLISKRLKSRHRLQDNVREDLYEAADKWVAAVGKDRPFMGGQKPNLADLAVYGVLRVMEGLDAFDDLMQHTHIQPWYLRVERAITEASPAH | 0.98
P02760 (protein, UniProt P02760 1-352, looked up, full-length) MRSLGALLLLLSACLAVSAGPVPTPPDNIQVQENFNISRIYGKWYNLAIGSTCPWLKKIMDRMTVSTLVLGEGATEAEISMTSTRWRKGVCEETSGAYEKTDTDGKFLYHKSKWNITMESYVVHTNYDEYAIFLTKKFSRHHGPTITAKLYGRAPQLRETLLQDFRVVAQGVGIPEDSIFTMADRGECVPGEQEPEPILIPRVRRAVLPQEEEGSGGGQLVTEVTKKEDSCQLGYSAGPCMGMTSRYFYNGTSMACETFQYGGCMGNGNNFVTEKECLQTCRTVAACNLPIVRGPCRAFIQLWAFDAVKGKCVLFPYGGCQGNGNKFYSEKECREYCGVPGDGDEELLRFSN | −0.95
O60678 (protein, UniProt O60678 1-531, looked up, full-length) MCSLASGATGGRGAVENEEDLPELSDSGDEAAWEDEDDADLPHGKQQTPCLFCNRLFTSAEETFSHCKSEHQFNIDSMVHKHGLEFYGYIKLINFIRLKNPTVEYMNSIYNPVPWEKEEYLKPVLEDDLLLQFDVEDLYEPVSVPFSYPNGLSENTSVVEKLKHMEARALSAEAALARAREDLQKMKQFAQDFVMHTDVRTCSSSTSVIADLQEDEDGVYFSSYGHYGIHEEMLKDKIRTESYRDFIYQNPHIFKDKVVLDVGCGTGILSMFAAKAGAKKVLGVDQSEILYQAMDIIRLNKLEDTITLIKGKIEEVHLPVEKVDVIISEWMGYFLLFESMLDSVLYAKNKYLAKGGSVYPDICTISLVAVSDVNKHADRIAFWDDVYGFKMSCMKKAVIPEAVVEVLDPKTLISEPCGIKHIDCHTTSISDLEFSSDFTLKITRTSMCTAIAGYFDIYFEKNCHNRVVFSTGPQSTKTHWKQTVFLLEKPFSVKAGEALKGKVTVHKNKKDPRSLTVTLTLNNSTQTYGLQ | 1.27
P55008 (protein, UniProt P55008 1-147, looked up, full-length) MSQTRDLQGGKAFGLLKAQQEERLDEINKQFLDDPKYSSDEDLPSKLEGFKEKYMEFDLNGNGDIDIMSLKRMLEKLGVPKTHLELKKLIGEVSSGSGETFSYPDFLRMMLGKRSAILKMILMYEEKAREKEKPTGPPAKKAISELP | 0.82
Q92520 (protein, UniProt Q92520 1-227, looked up, full-length) MRVAGAAKLVVAVAVFLLTFYVISQVFEIKMDASLGNLFARSALDTAARSTKPPRYKCGISKACPEKHFAFKMASGAANVVGPKICLEDNVLMSGVKNNVGRGINVALANGKTGEVLDTKYFDMWGGDVAPFIEFLKAIQDGTIVLMGTYDDGATKLNDEARRLIADLGSTSITNLGFRDNWVFCGGKGIKTKSPFEQHIKNNKDTNKYEGWPEVVEMEGCIPQKQD | 0.68
